Construct, isoform or probe ends are uncertain for at least one entry. For part of these data: The comparison behind a weaker result is the experiment's own reference, which may not be listed here. For part of these data: Where a protein sequence is shown, tags need not be part of it. For part of these data: The direction of at least one scale is not stated here.
What was measured:
[1] = biological target: UvrY-His6 phosphorylated (UvrY-P) (Escherichia coli MG1655) (UniProt P0AED5); assay: DNase I footprinting; settings: 0.25-0.7 uM, only upstream IR protected, 20 mM Tris-HCl pH 7.5, 10% glycerol, 50 mM KCl, 3 mM MgCl2, 1 mM DTT, 100 ug/mL BSA, 0.5 nM DNA, 30 min at 37 C (Fig 3 legend: room temperature), recombinant protein, residues 1-218, protein details: C-terminal His6, label: 5'-32P on one strand, probe letters rebuilt from the primers and the genome
[2] = biological target: T1, UvrY-His6 non-phosphorylated (Escherichia coli MG1655) (UniProt P0AED5); assay: EMSA; settings: non-phosphorylated, about 7% UvrY-P may account for binding; 20 mM Tris-HCl pH 7.5, 10% glycerol, 50 mM KCl, 3 mM MgCl2, 1 mM DTT, 100 ug/mL BSA, 0.5 nM DNA, 30 min at 37 C (Fig 3 legend: room temperature); recombinant protein; residues 1-218; protein details: C-terminal His6; label: 5'-32P; probe letters rebuilt from the primers and the genome
T1 sequence (looked up): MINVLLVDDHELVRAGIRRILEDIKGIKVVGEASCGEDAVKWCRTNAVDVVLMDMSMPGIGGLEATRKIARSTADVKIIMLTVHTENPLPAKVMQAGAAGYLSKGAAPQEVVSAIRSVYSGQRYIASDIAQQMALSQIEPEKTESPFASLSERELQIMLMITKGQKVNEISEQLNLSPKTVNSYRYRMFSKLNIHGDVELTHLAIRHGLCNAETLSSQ

[3] = biological target: UvrY-His6 phosphorylated (UvrY-P) (Escherichia coli MG1655) (UniProt P0AED5); assay: EMSA; settings: in vitro phosphorylated; 20 mM Tris-HCl pH 7.5, 10% glycerol, 50 mM KCl, 3 mM MgCl2, 1 mM DTT, 100 ug/mL BSA, 0.5 nM DNA, 30 min at 37 C (Fig 3 legend: room temperature); recombinant protein; residues 1-218; protein details: C-terminal His6; label: 5'-32P; probe letters rebuilt from the primers and the genome

Sequence	binding result [1]	binding result [2]	binding signal (fold affinity vs non-phosphorylated UvrY) [3]
CAGGAAAATCTGATTGGTCATCTGGTGACTCAGAAAAGGCTAAAACTGCCGCCCACACTATTTATCGCGACGCTGGAAGAAGAGTTAGAGGTCATCTCGGTGTGTAATCTCTCCGGTGAAGTGTGCAAAGAGACGCTGGGAACACGTAAACGGACGCATTTAGCCTCAAATCTTGCGGAATTCCTTAATCAACTTAAGCCTCTTCTGTAATCCAAATACCCCATCTGGTTGTGAGAGATCTCTTACAGACTCTGTAGGAGATCGCCAGGAAATAAGCGAATACTTAAAAAGATAAGAATCGTTATTTTCATTTAAAATCAAAATGTTGATTGTTAATTCTTAACTTTCATATGAAATTTTCCTTAAGGCATTGTCTGTAAGCGCCTTGTAAGACTTCGCGAAAAAGACGATTCTATCTTCGTCGACAGGGAGTCAGACAACGAAGTGAACATCAGGATGATGACAC (double strand) [csrB footprint DNA (-420 to +46)]	binds		
CAGGCGCACTCATCACAAAATGCGTCTGTTGATAATTCAAATTAGTCAAAGCGGTCGTCTCCGTCAGTCAAAGCTTTGTGGCGATTATACCTGAACCATAATAAAAGGCGGATTTTTCGGCGTGAGCGTTGTAAGTAAAAGCCATACGCTTTGTGAGACATTGCCGATAGTCTTTATGCGAAATAGCAGAGAAAATTCTGCGATGCATGTCAAATAAGCTATATAAATCAGTGAATTGCTTTTATATAAAACTCTGAAAATGTGCAAATACTGATGGCGGTTGATTGTTTGTTTAAAGCAAAGGCGTAAAGTAGCACCCATAGAGCGAGGACGCTAACAGGAACAATGACTCAGGATGAGGGTCAGGAGCGCCAGGAGGCGAAGACAGAGGATTGTCAGGAAGACAAACGTCCGGAGAC (double strand) [csrC footprint DNA (-319 to +100)]	binds		
CTGGCGCTCCTGACCCTCATCCTGAGTCATTGTTCCTGTTAGCGTCCTCGCTCTATGGGTGCTACTTTACGCCTTTGCTTTAAACAAACAATCAACCGCCATCAGTATTTGCACATTTTCAGAGTTTTATATAAAAGCAATTCACTGATTTATATAGCTTATTTGACATGCATCGCAGAATTTTCTCTGCTATTTCGCATAAAGACTATCGGCAATGTCTCACAAAGCGTATGGCTTTTACTTACAACGCTCACGCCGAAAAATCCGCCTTTTATTATGGTTCAGGTATAATCGCCACAAAGC (double strand) [csrC EMSA probe (-247 to +56)]		binds more weakly	2
GCGGAATTCCTTAATCAACTTAAGCCTCTTCTGTAATCCAAATACCCCATCTGGTTGTGAGAGATCTCTTACAGACTCTGTAGGAGATCGCCAGGAAATAAGCGAATACTTAAAAAGATAAGAATCGTTATTTTCATTTAAAATCAAAATGTTGATTGTTAATTCTTAACTTTCATATGAAATTTTCCTTAAGGCATTGTCTGTAAGCGCCTTGTAAGACTTCGCGAAAAAGACGATTCTATCTTCGTCGACAGGGAGTCAGACAACGAAGTGAACATCAGGATGATGACACTTC (double strand) [csrB EMSA probe (-246 to +49)]		binds more weakly	2
